{"sequences": {"note": "Chains of the proteins cited; added tags and fusions are not shown. Lines headed by an entry give the natural chain unless they say otherwise; changes in a name come on top.", "UniProt O14964, whole entry": "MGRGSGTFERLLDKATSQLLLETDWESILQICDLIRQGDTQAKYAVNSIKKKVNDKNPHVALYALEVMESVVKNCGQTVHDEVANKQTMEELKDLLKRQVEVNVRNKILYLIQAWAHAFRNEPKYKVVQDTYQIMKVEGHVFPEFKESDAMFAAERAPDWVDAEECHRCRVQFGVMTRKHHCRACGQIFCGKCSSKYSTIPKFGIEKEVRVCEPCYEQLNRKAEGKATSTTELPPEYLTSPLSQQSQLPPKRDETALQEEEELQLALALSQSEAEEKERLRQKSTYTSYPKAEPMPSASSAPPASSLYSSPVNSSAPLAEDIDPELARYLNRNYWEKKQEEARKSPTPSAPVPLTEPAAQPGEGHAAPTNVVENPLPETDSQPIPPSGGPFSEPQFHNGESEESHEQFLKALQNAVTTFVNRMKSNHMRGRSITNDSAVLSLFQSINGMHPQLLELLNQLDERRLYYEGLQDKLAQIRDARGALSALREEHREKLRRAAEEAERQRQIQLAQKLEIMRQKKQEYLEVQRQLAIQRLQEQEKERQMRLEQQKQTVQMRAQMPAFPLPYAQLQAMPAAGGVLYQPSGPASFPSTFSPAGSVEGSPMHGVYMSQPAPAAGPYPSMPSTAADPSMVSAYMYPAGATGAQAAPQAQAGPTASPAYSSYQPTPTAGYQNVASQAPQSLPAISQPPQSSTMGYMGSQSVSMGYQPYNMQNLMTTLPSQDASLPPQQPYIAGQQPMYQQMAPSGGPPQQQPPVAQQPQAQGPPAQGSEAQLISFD", "UniProt Q13888": "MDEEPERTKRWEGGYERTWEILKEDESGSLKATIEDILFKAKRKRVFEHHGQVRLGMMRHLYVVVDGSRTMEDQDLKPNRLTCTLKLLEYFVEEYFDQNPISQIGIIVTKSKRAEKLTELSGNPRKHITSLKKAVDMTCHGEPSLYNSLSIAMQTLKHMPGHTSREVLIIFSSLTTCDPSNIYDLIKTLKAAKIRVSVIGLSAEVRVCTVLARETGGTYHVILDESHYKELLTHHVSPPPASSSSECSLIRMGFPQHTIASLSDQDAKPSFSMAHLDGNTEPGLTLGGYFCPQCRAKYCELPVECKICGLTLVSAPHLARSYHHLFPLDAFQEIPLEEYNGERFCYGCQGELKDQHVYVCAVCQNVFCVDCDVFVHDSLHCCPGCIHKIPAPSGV", "UniProt Q04446": "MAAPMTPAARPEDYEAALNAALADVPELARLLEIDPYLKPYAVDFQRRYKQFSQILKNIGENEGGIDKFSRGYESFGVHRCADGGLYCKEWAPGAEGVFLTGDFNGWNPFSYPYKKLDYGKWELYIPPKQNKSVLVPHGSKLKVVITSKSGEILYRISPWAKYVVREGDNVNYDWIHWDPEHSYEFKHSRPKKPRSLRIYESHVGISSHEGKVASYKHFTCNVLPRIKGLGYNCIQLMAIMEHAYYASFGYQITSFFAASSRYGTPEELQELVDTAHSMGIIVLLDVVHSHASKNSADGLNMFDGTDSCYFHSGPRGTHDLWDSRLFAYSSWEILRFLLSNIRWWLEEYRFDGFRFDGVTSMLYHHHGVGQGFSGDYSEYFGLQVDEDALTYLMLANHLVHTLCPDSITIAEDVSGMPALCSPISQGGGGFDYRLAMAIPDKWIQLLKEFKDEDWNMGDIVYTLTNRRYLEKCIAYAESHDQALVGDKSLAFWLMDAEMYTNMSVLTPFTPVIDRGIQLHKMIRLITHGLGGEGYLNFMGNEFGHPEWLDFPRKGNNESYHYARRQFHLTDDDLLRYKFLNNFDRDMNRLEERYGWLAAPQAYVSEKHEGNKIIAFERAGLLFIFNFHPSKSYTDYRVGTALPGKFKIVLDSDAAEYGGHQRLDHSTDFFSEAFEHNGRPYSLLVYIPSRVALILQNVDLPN", "UniProt P05114": "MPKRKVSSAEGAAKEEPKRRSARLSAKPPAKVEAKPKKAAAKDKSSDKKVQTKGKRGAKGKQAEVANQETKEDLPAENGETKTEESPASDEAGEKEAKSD", "UniProt Q9H4A5": "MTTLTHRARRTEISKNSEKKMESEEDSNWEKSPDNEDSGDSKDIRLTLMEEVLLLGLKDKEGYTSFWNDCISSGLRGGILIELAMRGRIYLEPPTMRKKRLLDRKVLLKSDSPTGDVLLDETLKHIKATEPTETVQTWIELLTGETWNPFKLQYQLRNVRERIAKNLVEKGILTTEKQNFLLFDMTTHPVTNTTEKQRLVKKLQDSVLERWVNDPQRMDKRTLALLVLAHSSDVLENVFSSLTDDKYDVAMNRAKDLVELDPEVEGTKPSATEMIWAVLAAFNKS", "UniProt O00291": "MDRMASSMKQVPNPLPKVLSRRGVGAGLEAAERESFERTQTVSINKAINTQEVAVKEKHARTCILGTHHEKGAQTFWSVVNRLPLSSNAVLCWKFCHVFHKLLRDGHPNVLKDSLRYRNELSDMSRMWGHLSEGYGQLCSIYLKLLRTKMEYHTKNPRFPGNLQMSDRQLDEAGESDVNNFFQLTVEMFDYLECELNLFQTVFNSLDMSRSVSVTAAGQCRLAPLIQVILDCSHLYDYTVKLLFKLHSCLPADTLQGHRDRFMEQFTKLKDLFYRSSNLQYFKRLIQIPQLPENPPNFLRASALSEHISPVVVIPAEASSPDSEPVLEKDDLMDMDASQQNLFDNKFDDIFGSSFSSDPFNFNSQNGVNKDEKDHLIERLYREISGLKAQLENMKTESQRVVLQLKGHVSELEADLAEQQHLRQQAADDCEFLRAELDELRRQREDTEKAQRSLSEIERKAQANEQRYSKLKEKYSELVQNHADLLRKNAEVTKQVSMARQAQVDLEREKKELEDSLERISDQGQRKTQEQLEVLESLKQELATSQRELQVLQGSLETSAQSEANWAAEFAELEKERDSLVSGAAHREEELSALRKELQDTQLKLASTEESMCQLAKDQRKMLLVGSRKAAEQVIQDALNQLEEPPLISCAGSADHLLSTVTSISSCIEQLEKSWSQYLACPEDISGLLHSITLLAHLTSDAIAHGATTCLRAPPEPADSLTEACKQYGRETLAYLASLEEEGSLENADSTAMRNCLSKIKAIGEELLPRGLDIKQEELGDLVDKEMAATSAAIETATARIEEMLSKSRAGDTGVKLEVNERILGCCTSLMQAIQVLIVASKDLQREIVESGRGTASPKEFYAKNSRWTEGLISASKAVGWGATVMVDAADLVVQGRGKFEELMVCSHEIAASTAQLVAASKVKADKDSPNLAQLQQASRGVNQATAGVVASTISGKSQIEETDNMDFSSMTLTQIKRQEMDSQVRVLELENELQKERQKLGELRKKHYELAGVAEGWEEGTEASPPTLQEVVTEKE", "UniProt P09651": "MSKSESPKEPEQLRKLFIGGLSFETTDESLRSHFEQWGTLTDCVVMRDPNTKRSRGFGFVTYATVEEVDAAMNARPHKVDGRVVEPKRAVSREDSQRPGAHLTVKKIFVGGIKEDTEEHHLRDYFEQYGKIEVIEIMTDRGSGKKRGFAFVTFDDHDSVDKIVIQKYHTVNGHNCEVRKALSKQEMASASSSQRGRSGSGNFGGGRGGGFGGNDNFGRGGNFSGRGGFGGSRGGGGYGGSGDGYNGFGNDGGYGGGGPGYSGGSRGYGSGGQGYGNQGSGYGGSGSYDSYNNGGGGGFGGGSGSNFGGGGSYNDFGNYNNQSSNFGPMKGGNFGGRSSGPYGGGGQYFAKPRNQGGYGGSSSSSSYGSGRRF", "UniProt P46976": "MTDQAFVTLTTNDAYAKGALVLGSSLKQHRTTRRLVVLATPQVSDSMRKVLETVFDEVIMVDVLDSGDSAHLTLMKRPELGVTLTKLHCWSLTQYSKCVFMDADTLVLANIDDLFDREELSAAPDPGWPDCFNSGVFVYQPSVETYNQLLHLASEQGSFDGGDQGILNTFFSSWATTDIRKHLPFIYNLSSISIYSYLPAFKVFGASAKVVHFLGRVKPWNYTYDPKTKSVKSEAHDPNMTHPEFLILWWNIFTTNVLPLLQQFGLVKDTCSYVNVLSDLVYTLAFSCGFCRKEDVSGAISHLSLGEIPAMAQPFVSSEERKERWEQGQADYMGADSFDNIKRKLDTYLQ", "UniProt P62873, whole entry": "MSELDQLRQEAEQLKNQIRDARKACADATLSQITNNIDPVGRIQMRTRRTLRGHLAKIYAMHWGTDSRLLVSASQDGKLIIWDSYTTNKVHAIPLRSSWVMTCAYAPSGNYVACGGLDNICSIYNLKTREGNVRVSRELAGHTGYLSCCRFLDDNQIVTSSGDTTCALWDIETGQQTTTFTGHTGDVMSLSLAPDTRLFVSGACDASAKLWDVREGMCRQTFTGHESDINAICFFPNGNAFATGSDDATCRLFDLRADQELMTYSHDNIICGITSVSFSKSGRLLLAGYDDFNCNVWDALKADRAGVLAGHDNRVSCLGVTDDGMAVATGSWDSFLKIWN", "UniProt P14866": "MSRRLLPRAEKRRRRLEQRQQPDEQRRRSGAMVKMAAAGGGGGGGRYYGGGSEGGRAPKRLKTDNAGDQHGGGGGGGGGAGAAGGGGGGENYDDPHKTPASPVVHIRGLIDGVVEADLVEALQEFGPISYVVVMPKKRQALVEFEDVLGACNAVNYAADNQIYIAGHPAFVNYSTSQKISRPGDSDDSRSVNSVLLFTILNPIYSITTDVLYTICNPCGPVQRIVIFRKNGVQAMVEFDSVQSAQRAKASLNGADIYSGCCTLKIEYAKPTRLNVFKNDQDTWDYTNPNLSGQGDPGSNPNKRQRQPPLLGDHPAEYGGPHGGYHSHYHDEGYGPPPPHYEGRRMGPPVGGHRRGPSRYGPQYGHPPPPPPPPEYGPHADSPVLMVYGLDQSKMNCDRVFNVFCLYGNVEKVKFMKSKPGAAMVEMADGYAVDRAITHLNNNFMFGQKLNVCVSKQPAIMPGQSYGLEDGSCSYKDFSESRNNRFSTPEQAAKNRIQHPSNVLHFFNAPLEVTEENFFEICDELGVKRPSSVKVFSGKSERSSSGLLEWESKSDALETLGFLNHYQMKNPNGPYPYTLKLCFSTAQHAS", "UniProt Q01415": "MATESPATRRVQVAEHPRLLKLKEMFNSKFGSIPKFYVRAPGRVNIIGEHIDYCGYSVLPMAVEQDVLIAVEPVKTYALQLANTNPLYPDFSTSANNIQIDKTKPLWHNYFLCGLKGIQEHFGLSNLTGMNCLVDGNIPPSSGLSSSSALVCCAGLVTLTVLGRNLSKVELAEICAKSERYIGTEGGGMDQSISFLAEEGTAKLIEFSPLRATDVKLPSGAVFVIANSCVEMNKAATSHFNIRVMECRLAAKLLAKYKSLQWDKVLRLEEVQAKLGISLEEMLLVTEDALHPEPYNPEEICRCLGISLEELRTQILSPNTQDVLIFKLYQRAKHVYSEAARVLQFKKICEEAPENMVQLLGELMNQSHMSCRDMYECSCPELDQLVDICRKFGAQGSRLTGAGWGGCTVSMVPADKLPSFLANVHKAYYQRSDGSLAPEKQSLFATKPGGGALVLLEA", "UniProt P07203, whole entry": "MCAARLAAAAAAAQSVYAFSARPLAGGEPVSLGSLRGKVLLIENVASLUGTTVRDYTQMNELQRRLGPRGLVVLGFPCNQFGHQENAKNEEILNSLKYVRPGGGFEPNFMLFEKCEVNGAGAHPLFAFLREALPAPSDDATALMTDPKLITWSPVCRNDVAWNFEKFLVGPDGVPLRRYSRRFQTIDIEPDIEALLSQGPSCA", "UniProt Q9H2C0": "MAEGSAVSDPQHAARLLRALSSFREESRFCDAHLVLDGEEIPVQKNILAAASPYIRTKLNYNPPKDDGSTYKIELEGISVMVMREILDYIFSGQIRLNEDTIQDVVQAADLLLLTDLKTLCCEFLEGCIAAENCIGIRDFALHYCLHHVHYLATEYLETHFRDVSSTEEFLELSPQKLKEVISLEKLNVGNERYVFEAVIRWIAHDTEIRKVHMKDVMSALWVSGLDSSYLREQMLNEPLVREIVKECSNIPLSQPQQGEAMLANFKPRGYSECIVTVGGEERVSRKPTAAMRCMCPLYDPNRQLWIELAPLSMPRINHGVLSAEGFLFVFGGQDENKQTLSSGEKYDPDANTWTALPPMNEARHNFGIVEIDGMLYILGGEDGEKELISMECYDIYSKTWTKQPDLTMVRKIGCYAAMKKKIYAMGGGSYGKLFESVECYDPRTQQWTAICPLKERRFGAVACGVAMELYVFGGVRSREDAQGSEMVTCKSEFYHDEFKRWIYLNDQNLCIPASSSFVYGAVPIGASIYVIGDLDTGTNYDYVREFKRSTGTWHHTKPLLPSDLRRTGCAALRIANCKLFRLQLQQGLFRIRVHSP", "UniProt P15104, whole entry": "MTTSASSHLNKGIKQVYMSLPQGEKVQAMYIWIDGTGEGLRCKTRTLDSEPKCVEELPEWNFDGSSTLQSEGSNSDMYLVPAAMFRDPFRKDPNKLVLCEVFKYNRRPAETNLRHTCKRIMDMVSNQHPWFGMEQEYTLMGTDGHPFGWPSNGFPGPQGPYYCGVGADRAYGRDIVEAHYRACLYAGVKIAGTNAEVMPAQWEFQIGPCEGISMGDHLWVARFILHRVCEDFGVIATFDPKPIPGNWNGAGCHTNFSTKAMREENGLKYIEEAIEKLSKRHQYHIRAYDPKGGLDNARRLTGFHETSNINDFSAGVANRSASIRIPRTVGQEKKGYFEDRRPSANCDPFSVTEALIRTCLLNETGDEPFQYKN"}, "source": "the supplement of paper PMC7666118", "note": "This is one part of the list.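 Rule for the calls: active = dose-dependent thermal stabilisation significant by F-test of dose-response against flat model at 10% FDR; inactive = not significant.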", "data": [{"compound": "Nc1nc2c(ncn2[C@@H]2O[C@H](COP(=O)(O)OP(=O)(O)OP(=O)(O)O)[C@@H](O)[C@H]2O)c(=O)[nH]1", "test": "dose-dependent thermal stabilisation call (2D-TPP, DLPTP, 10% FDR) (binary (1 = stabilised)); higher = stabilised by the compound", "details": "system: Jurkat gel-filtered lysate; concentration range 1-500 µM", "protocol": "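2D thermal proteome profiling in gel-filtered Jurkat E6.1 lysate (2 mg/ml) treated with NaGTP (0, 1, 10, 100, 500 uM) for 10 min at room temperature, then heated 3 min at one of 12 temperatures (42-63.9 C). Soluble protein was quantified by TMT10 MS. The value is the DLPTP call of the paper: dose-dependent thermal stabilisation over all temperatures at 10% FDR (F-test of a dose-response against a flat model); one experiment, one call per tested protein.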", "values": [{"target": "GPBP1 (UniProt Q86WP2)", "dose-dependent thermal stabilisation call": "inactive: 0"}, {"target": "GBF1 (UniProt Q92538)", "dose-dependent thermal stabilisation call": "inactive: 0"}, {"target": "HGS (UniProt O14964)", "dose-dependent thermal stabilisation call": "inactive: 0"}, {"target": "GNB2 (UniProt P62879)", "dose-dependent thermal stabilisation call": "inactive: 0"}, {"target": "GTF2H2 (UniProt Q13888)", "dose-dependent thermal stabilisation call": "inactive: 0"}, {"target": "HNRNPK (UniProt P61978)", "dose-dependent thermal stabilisation call": "inactive: 0"}, {"target": "HIST1H1B (UniProt P16401)", "dose-dependent thermal stabilisation call": "inactive: 0"}, {"target": "GGCT (UniProt O75223)", "dose-dependent thermal stabilisation call": "inactive: 0"}, {"target": "GBE1 (UniProt Q04446)", "dose-dependent thermal stabilisation call": "inactive: 0"}, {"target": "GMNN (UniProt O75496)", "dose-dependent thermal stabilisation call": "inactive: 0"}, {"target": "HMGN1 (UniProt P05114)", "dose-dependent thermal stabilisation call": "inactive: 0"}, {"target": "GRWD1 (UniProt Q9BQ67)", "dose-dependent thermal stabilisation call": "inactive: 0"}, {"target": "GINS2 (UniProt Q9Y248)", "dose-dependent thermal stabilisation call": "inactive: 0"}, {"target": "GCAT (UniProt O75600)", "dose-dependent thermal stabilisation call": "inactive: 0"}, {"target": "H1FX (UniProt Q92522)", "dose-dependent thermal stabilisation call": "inactive: 0"}, {"target": "GOLGA2 (UniProt Q08379)", "dose-dependent thermal stabilisation call": "inactive: 0"}, {"target": "GOLPH3L (UniProt Q9H4A5)", "dose-dependent thermal stabilisation call": "inactive: 0"}, {"target": "HIP1 (UniProt O00291)", "dose-dependent thermal stabilisation call": "inactive: 0"}, {"target": "HNRNPA1 (UniProt P09651)", "dose-dependent thermal stabilisation call": "inactive: 0"}, {"target": "GYG1 (UniProt P46976)", "dose-dependent thermal stabilisation call": "inactive: 0"}, {"target": "GNB1 (UniProt P62873)", "dose-dependent thermal stabilisation call": "inactive: 0"}, {"target": "HNRNPL (UniProt P14866)", "dose-dependent thermal stabilisation call": "active: 1"}, {"target": "GALK2 (UniProt Q01415)", "dose-dependent thermal stabilisation call": "inactive: 0"}, {"target": "GLRX5 (UniProt Q86SX6)", "dose-dependent thermal stabilisation call": "inactive: 0"}, {"target": "GINS1 (UniProt Q14691)", "dose-dependent thermal stabilisation call": "active: 1"}, {"target": "GMIP (UniProt Q9P107)", "dose-dependent thermal stabilisation call": "active: 1"}, {"target": "HMGN3 (UniProt Q15651)", "dose-dependent thermal stabilisation call": "inactive: 0"}, {"target": "G6PD (UniProt P11413)", "dose-dependent thermal stabilisation call": "inactive: 0"}, {"target": "HADHA (UniProt P40939)", "dose-dependent thermal stabilisation call": "inactive: 0"}, {"target": "GINS4 (UniProt Q9BRT9)", "dose-dependent thermal stabilisation call": "inactive: 0"}, {"target": "GIMAP7 (UniProt Q8NHV1)", "dose-dependent thermal stabilisation call": "inactive: 0"}, {"target": "GPX1 (UniProt P07203)", "dose-dependent thermal stabilisation call": "inactive: 0"}, {"target": "GORASP2 (UniProt Q9H8Y8)", "dose-dependent thermal stabilisation call": "inactive: 0"}, {"target": "HARS (UniProt P12081)", "dose-dependent thermal stabilisation call": "inactive: 0"}, {"target": "GSE1 (UniProt Q14687)", "dose-dependent thermal stabilisation call": "inactive: 0"}, {"target": "GAN (UniProt Q9H2C0)", "dose-dependent thermal stabilisation call": "inactive: 0"}, {"target": "GSPT1 (UniProt P15170)", "dose-dependent thermal stabilisation call": "active: 1"}, {"target": "HNRNPA3 (UniProt P51991)", "dose-dependent thermal stabilisation call": "active: 1"}, {"target": "GLUL (UniProt P15104)", "dose-dependent thermal stabilisation call": "inactive: 0"}, {"target": "GAPVD1 (UniProt Q14C86)", "dose-dependent thermal stabilisation call": "inactive: 0"}]}]}
